Data as given in PubChem BioAssay AID1259308 (NCATS, 2017).

Test: 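Candidate targets for better recombinant protein yield in mammalian cells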 (primary screen)
System: human HEK293 embryonic kidney cells stably expressing firefly luciferase (HEK-CMV-Luc2-Hygro)
Knock-down reagent: single siRNA against human genes, 0.8 pmol siRNA per well
Duration: 72 h
Measurement: 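Reporter luminescence and viable-cell signal on separate replicate plates, given as percent of non-targeting control and median/MAD z-scores, plus per-cell luciferase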
Reading the numbers: total luciferase, z-score and total luciferase, % of control: higher = more reporter protein produced; luciferase per cell, z-score: higher = more reporter output per viable cell; viable cells, % of control: higher = more viable cells
Rule for the call: 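An siRNA counts as active if its total luciferase robust z-score exceeds 3; genes with two or more such siRNAs out of three were retested with fresh siRNAs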
Calls: active = raised luciferase; inactive = no rise
Shown is a random part of about 59,000 reagents tested. In the full data, about 1,510 (2.6%) were called active. 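Calls use total luciferase alone and ignore viability, so some active siRNAs may act by altering cell number.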 Unmarked entries are inactive. Reagents against one gene are numbered here.

| gene knocked down | siRNA no. | total luciferase, z-score | total luciferase, % of control | luciferase per cell, z-score | viable cells, % of control |
| --- | --- | --- | --- | --- | --- |
| CD5 (GeneID 921) | 1 | -0.442 | 73.1 | -1.08 | 109 |
| CD5 (GeneID 921) | 2 | -0.973 | 62.5 | -1.17 | 95.1 |
| CD5 (GeneID 921) | 3 | -0.662 | 68.7 | -0.512 | 87.9 |
| CYRIA (GeneID 81553) | 1 | -1.12 | 59.5 | -1.21 | 91.4 |
| CYRIA (GeneID 81553) | 2 | 0.968 | 101 | 0.997 | 86.9 |
| CYRIA (GeneID 81553) | 3 | 0.443 | 90.7 | 0.0905 | 99 |
| PPIAP35 (GeneID 128192) | 1 | 0.303 | 87.9 | 0.0358 | 97.3 |
| PPIAP35 (GeneID 128192) | 2 | 0.19 | 85.7 | 0.453 | 85 |
| PPIAP35 (GeneID 128192) | 3 | -0.278 | 76.4 | -0.0342 | 86.1 |
| FBXO16 (GeneID 157574) | 1 | 0.132 | 84.5 | -0.108 | 97.2 |
| FBXO16 (GeneID 157574) | 2 | 0.938 | 101 | 0.71 | 93.2 |
| FBXO16 (GeneID 157574) | 3 | 0.918 | 100 | 0.435 | 99.8 |
| ZNF462 (GeneID 58499) | 1 | -0.329 | 75.3 | 0.104 | 81.9 |
| ZNF462 (GeneID 58499) | 2 | -1.03 | 61.3 | 0.0887 | 66.9 |
| ZNF462 (GeneID 58499) | 3 | -0.39 | 74.1 | 0.0137 | 82.5 |
| TIGD3 (GeneID 220359) | 1 | -1.7 | 48 | -1.6 | 81.8 |
| TIGD3 (GeneID 220359) | 2 | -1.63 | 49.4 | -1.21 | 75.9 |
| TIGD3 (GeneID 220359) | 3 | 0.338 | 88.6 | 0.687 | 82.6 |
| POLE (GeneID 5426) | 1 | -0.389 | 74.1 | -0.451 | 93.3 |
| POLE (GeneID 5426) | 2 | 0.628 | 94.4 | 0.132 | 102 |
| POLE (GeneID 5426) | 3 | 0.214 | 86.1 | 0.916 | 75.6 |
| LRRC75A (GeneID 388341) | 1 | -2.08 | 40.5 | -1.17 | 61.5 |
| LRRC75A (GeneID 388341) | 2 | -1.93 | 43.5 | -1.05 | 64.1 |
| LRRC75A (GeneID 388341) | 3 | 0.306 | 88 | 0.0505 | 97 |

Records listed so far whose target name begins with C or c (6):
| gene knocked down | siRNA no. | total luciferase, z-score | total luciferase, % of control | luciferase per cell, z-score | viable cells, % of control |
| --- | --- | --- | --- | --- | --- |
| CD5 (GeneID 921) | 1 | -0.442 | 73.1 | -1.08 | 109 |
| CD5 (GeneID 921) | 2 | -0.973 | 62.5 | -1.17 | 95.1 |
| CD5 (GeneID 921) | 3 | -0.662 | 68.7 | -0.512 | 87.9 |
| CYRIA (GeneID 81553) | 1 | -1.12 | 59.5 | -1.21 | 91.4 |
| CYRIA (GeneID 81553) | 2 | 0.968 | 101 | 0.997 | 86.9 |
| CYRIA (GeneID 81553) | 3 | 0.443 | 90.7 | 0.0905 | 99 |
